Some entries share one result that the patent states for a list of compounds.
Biological target: Helios (IKZF2) (Homo sapiens, UniProt Q96SW2+Q9UKS7)
Experiment: Screening of Helios protein degraders using Nano-Glo HiBiT cell line (HiBiT-IKZF2)
Assay type: cell-based
Conditions: as shown in Table 1
Method: To observe intracellular degradation of Helios, the Nano-Glo HiBiT detection system (Promega) was employed. […] The cells expressing Helios fused with HiBiT were validated using the Nano-Glo HiBiT detection system (Promega) according to a predetermined protocol, isolated as single cells, and cultured in complete medium to establish a monoclonal cell line.
After 6 hours, the Nano-Glo HiBiT detection reagent was added to each well in an equal volume to the cell culture medium and incubated at room temperature for 10 minutes. Following incubation, the HiBiT luminescence signal was measured using a microplate reader (Perkin Elmer).

Sequences of proteins named here, by UniProt entry; tags and fusion partners are left off. A change or cut given only in a name is not applied to a line headed by its entry.
UniProt Q96SW2: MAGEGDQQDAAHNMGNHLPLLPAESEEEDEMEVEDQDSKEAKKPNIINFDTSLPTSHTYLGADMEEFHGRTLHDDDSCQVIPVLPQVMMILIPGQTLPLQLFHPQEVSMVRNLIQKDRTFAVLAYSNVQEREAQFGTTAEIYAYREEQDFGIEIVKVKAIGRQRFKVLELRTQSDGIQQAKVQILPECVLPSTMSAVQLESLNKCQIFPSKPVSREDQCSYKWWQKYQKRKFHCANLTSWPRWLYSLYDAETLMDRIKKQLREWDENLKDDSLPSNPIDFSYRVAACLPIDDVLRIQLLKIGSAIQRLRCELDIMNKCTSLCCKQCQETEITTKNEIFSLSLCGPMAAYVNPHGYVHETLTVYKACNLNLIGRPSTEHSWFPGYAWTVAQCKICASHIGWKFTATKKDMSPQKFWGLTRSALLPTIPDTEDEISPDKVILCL
UniProt Q9UKS7: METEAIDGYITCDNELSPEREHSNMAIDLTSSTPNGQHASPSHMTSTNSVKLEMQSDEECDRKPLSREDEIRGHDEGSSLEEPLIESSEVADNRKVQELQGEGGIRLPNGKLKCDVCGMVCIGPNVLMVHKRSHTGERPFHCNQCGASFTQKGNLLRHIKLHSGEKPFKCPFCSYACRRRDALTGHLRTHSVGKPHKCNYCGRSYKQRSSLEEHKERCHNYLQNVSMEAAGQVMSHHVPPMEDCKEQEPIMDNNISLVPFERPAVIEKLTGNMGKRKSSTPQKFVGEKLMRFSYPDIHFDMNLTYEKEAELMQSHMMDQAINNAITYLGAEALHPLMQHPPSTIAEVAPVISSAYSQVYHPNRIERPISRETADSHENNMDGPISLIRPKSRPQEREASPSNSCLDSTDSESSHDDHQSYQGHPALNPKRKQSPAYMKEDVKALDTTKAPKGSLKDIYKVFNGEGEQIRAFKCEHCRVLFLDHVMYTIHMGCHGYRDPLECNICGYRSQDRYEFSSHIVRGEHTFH

SMILES | IKZF2 degradation activity (in words, comment on Table 1)
Cc1c(C(=O)N2CCC(c3ccc4c(c3F)CN(C3CCC(=O)NC3=O)C4=O)CC2)[nH]c2cc(C#N)c(F)cc12 (centres unmarked) [Compound 120, 2-(4-(2-(2,6-dioxopiperidin-3-yl)-4-fluoro-1-oxoindolin-5-yl)piperidine-1-carbonyl)-5-fluoro-3-methyl-1H-indole-6-carbonitrile] | even greater IKZF2 degradation activity
Cc1c(C(=O)N2CCC(c3ccc4c(c3F)C(=O)N(C3CCC(=O)NC3=O)C4=O)CC2)[nH]c2cc(Cl)ccc12 (centres unmarked) [Compound 121, 5-(1-(6-chloro-3-methyl-1H-indole-2-carbonyl)piperidin-4-yl)-2-(2,6-dioxopiperidin-3-yl)-4-fluoroisoindoline-1,3-dione] | even greater IKZF2 degradation activity

From patent US20260216164A1, “INDOLE COMPOUND DECOMPOSING IKZF2, AND USE THEREOF” (KOREA RESEARCH INSTITUTE OF CHEMICAL TECHNOLOGY, priority 2023, published 2026)
